# According to PubChem BioAssay AID485298 (National Center for Advancing Translational Sciences (NCATS), 2010):
# Several values for one entry are separate records, joined by “and”; a condition that tells them apart may be missing. Identical values can stand only once. In all, about 320,000 compounds went through this assay and about 740 (0.23%) were called active. Inconclusive results, whose numbers are uncertain, are shown with a selection of clear calls. Calls come from the whole dose curve; as a rule, active = well fitted activation curve with a large enough effect; inconclusive = small, poorly fitted or top-dose-only effect; inactive = no such curve, though single readings can be large or run the other way. A potency beside an inconclusive call is a rough fit, not a confirmed value. Where a structure was tested more than once in an assay, its records may differ in their call.
# Test: qHTS Assay for Small Molecule Inhibitors of Mitochondrial Division or Activators of Mitochondrial Fusion; note: nearly all actives have a fitted effect of over 45% in size
# Conditions: S. cerevisiae fusion-defective mutant growth rescue, CellTiterGlo 48 h; series mostly up to 46.1 µM
# Outline: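 Yeast fusion mutant, YPEG (non-fermentable carbon), compound, 48 h at 37C non-permissive; CellTiterGlo added, 10 min RT, luminescence read. Rescued growth = division inhibition.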
# Potency is the fitted concentration of half-maximal effect.
row,Compound,Potency
1,COc1ccc2c(c1)CC/C(=C/c1ccco1)C2=O,inactive
2,CC(OC(=O)CC(NC(=O)c1ccccc1Cl)c1ccccc1)C(=O)Nc1cccc(Cl)c1Cl (centres undefined),"inconclusive: 15.8 µM [activator, partial curve]"
3,Cc1ccc(C)c(Oc2cc(F)nc(N)n2)c1,"inconclusive: 3.98 µM [activator, full curve]"
4,NC(=O)CCN1CCCCC1,"inconclusive: 35.5 µM [activator, partial curve]"
5,CNC(=O)c1ccsc1NC(=O)c1sc2ccccc2c1Cl,"inconclusive: 2.82 µM [activator, full curve, poor fit]"
6,Cc1ccc(SCCNS(=O)(=O)c2ccc(F)cc2)cc1,"inconclusive: 17.8 µM [activator, single point]"
7,Cc1cccc(-c2nc(Nc3ccc(N4CCOCC4)cc3)c3ccccc3n2)c1,"inconclusive: 12.6 µM [activator, partial curve]"
8,C=CCOC(=O)c1ccc(N2CCN(c3ccccc3)CC2)nc1,"inconclusive: 20 µM [activator, partial curve]"
9,O=C(Nc1ccncc1)c1cc(-c2cccc(Br)c2)nc2ccccc12,"inconclusive: 17.8 µM [activator, single point]"
10,CC1CCC(C(=O)NNC(=O)c2cc(-c3ccco3)[nH]n2)CC1 (centres undefined),"inconclusive: 22.4 µM [activator, single point]"
11,COc1ccc(OC)c(C2=CC(=O)C[C@H](c3ccc4c(c3)OCO4)C2)c1,"inconclusive: 7.94 µM [activator, partial curve]"
12,Cc1cc(C)nc(/N=C2\NC(=O)CC(C(=O)O)N2c2ccc(Cl)cc2)n1 (centres undefined),inactive
13,Cc1c(-c2nc(N)nc(Nc3ccc(F)cc3)n2)oc2ccccc12,"inconclusive: 8.91 µM [activator, partial curve]"
14,COc1ccc(NC(=O)N(Cc2cccs2)Cc2cc3cc4c(cc3[nH]c2=O)OCO4)cc1,"inconclusive: 14.1 µM [activator, single point]"
15,COc1ccccc1-c1c(C#N)c(N)nc2c1CCc1ccccc1-2,"inconclusive: 12.6 µM [activator, partial curve]"
16,CN(C(=O)Cc1c(C(=O)O)n(C)c2ccccc12)c1ccc(Cl)cc1,inactive
17,O=c1c2sccc2nc(SCc2cc(=O)n3ccccc3n2)n1-c1ccc(Br)cc1,"inconclusive: 35.5 µM [activator, single point]"
18,Cc1nc2ccccc2n1S(=O)(=O)c1ccc(F)cc1,"inconclusive: 0.355 µM [activator, full curve, poor fit]"
19,CSCCC(NC(=O)c1ccco1)C(=O)Nc1cc(C)ccn1 (centres undefined),inactive
20,CC(C)N(CCO)C(=O)CCc1nnc(CCCc2ccccc2)o1,inactive
21,CCC(C(=O)N1CCCCCC1)n1nc(C)n2c(cc3occc32)c1=O (centres undefined),"inconclusive: 35.5 µM [activator, partial curve, poor fit]"
22,CCC(=O)NC(c1cccc([N+](=O)[O-])c1)c1c(O)ccc2ccccc12 (centres undefined),"inconclusive: 6.31 µM [activator, partial curve, poor fit]"

row,Compound,Potency
1,O=C(c1ccco1)N1CCN(c2ncnc3c(-c4ccc(Cl)cc4)nsc23)CC1,"inconclusive: 7.94 µM [activator, partial curve]"
2,CCn1cnc2c1c(=O)n(Cc1csc(-c3ccccc3)n1)c(=O)n2Cc1ccccc1,"inconclusive: 10 µM [activator, partial curve]"
3,Cc1cccc(-c2nc(Nc3cccc(O)c3)c3ccccc3n2)c1,"inconclusive: 17.8 µM [activator, single point]"
4,COc1cccc(CNc2nc3nc(C)c(Cl)c(C)n3n2)c1,inactive
5,CCOc1cc(/C=N/O)cc(Br)c1OCC(=O)NCc1ccccc1,"inconclusive: 15.8 µM [activator, partial curve]"
6,CCCCNC(=O)Nc1nnc(-c2ccccc2)o1,inactive
7,COc1cc(CNC(=O)CCCCCCC(C)C)ccc1O,active: 18.4 µM
8,CN(Cc1ccc(F)cc1)C(=O)c1cccc(S(=O)(=O)NCc2ccccc2)c1,inactive
9,O=[N+]([O-])c1ccc(O)c2ncccc12,"inconclusive: 2.51 µM [activator, full curve, poor fit]"
10,O=S(=O)(c1ccc(Cl)cc1)N1CCN(c2nc(-c3cccs3)nc3ccccc23)CC1,"inconclusive: 2.24 µM [activator, full curve]"
11,CCC(=O)NC(C)c1cc(Cl)c2cccnc2c1O (centres undefined),"inconclusive: 3.16 µM [activator, single point] and inconclusive: 35.5 µM [activator, single point]"
12,Cc1cc(C)n(-c2ccc(C(=O)OCn3nnc4ccccc4c3=O)cc2)n1,inactive
13,O=C(Oc1ccc(N(Cc2cccs2)C2=NS(=O)(=O)c3ccccc32)cc1)c1ccccc1Cl,inactive
14,O=C1c2ccccc2CCC12N=NCC2c1ccc(Cl)cc1 (centres undefined),inactive
15,Cc1ccn2c(NC(=O)C(C)(C)Oc3ccc(Cl)cc3)c(-c3cccs3)nc2c1,"inconclusive: 35.5 µM [activator, single point]"
16,C/C(=N\NC(=O)c1ccc(CSc2nc(C)cc(C)n2)cc1)C1CCCCC1,"inconclusive: 31.6 µM [activator, single point]"
17,NC(=O)[C@H]1CC2(CC(c3cccc(NC(=O)COc4ccc(Cl)cc4)c3)=NO2)CN1C(=O)c1ccc(Cl)cc1 (some centres undefined),"inconclusive: 31.6 µM [activator, partial curve]"
18,Cc1ccc(C)c(N2CCN(C(=O)Cc3cn(C)c4ccccc34)CC2)c1,"inconclusive: 31.6 µM [activator, single point]"
19,CCc1ccccc1NC(=O)CN1CCN(C(=O)C(C)NC(=O)c2ccc(Cl)cc2)CC1 (centres undefined),inactive
20,C=CCNC(=O)c1onc(CSc2cc(C)cc(C)c2)c1C(=O)NCC=C,"inconclusive: 20 µM [activator, single point]"
21,Cc1ccc(N2C(=O)c3cccc([N+](=O)[O-])c3C2=O)cc1C,inactive
22,CCOC(=O)c1sc2nc(N3CCOCC3)c3c(c2c1N)CCCC3,inactive
